Experimental data published in publication PMC9865144, “Crystal Structure of the SH3 Domain of ASAP1 in Complex with the Proline Rich Motif (PRM) of MICAL1 Reveals a Unique SH3/PRM Interaction Mode” (International Journal of Molecular Sciences, 2023).
Read-outs that look alike come from different tables or passages of the source. No constants are given. Whether binding was seen depends on the method and setting. In cells and extracts the contact can be indirect. Some results given as binding are weak or reduced against the parent protein; the word gives no strength.

Chains of the proteins cited; added tags and fusions are not shown.
UniProt Q9QWY8: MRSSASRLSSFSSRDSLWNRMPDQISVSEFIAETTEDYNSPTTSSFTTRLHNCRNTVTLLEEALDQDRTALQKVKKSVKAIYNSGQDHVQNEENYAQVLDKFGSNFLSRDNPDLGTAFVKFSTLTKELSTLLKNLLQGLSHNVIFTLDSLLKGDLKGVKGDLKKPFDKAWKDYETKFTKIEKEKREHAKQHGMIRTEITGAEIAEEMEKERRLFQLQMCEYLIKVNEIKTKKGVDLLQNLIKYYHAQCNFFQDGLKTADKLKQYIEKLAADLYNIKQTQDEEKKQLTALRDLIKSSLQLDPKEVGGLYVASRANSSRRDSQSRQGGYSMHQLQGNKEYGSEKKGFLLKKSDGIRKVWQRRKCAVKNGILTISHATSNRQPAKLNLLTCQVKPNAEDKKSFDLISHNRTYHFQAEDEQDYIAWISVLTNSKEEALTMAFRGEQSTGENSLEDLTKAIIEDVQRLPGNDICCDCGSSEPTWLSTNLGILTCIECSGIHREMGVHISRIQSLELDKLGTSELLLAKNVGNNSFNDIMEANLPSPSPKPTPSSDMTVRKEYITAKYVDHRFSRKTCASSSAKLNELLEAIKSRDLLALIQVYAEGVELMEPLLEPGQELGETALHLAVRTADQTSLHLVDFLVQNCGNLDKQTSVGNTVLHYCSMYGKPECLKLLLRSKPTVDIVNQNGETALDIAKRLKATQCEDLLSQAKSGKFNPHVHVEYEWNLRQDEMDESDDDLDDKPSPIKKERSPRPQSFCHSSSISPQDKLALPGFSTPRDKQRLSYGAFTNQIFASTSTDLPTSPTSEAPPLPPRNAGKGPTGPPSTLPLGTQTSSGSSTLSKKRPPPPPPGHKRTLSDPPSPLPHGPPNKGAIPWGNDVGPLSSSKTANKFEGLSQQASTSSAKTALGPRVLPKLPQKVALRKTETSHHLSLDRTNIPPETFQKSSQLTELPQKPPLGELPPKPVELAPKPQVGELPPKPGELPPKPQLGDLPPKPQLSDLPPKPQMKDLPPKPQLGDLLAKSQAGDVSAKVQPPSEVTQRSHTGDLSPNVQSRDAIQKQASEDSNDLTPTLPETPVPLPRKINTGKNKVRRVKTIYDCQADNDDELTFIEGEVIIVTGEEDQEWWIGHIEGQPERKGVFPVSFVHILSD
UniProt Q08AE8: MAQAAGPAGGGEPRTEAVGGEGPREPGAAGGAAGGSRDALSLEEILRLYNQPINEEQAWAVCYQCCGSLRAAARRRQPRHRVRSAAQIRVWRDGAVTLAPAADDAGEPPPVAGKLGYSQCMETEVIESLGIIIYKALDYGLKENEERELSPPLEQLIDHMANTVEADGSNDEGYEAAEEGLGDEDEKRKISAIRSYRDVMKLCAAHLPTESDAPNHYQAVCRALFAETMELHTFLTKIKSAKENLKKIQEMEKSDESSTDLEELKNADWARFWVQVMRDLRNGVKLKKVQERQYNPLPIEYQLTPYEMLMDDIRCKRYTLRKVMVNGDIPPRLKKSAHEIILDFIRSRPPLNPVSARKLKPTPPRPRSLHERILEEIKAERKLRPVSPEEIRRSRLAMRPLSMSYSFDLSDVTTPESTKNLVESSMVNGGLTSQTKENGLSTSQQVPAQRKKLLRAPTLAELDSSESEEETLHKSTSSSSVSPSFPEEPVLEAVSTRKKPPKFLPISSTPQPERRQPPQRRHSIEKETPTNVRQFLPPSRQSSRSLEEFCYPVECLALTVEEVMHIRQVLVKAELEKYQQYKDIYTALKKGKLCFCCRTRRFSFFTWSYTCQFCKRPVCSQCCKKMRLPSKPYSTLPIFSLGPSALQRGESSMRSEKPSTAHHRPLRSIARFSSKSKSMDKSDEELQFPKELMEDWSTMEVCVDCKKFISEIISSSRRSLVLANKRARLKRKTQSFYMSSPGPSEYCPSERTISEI

B1: full-length human MICAL1, for cell transfection (protein, UniProt Q8TDZ2 1-1067)
chain: MASPTSTNPAHAHFESFLQAQLCQDVLSSFQELCGALGLEPGGGLPQYHKIKDQLNYWSAKSLWTKLDKRAGQPVYQQGRACTSTKCLVVGAGPCGLRVAVELALLGARVVLVEKRTKFSRHNVLHLWPFTIHDLRALGAKKFYGRFCTGTLDHISIRQLQLLLLKVALLLGVEIHWGVTFTGLQPPPRKGSGWRAQLQPNPPAQLANYEFDVLISAAGGKFVPEGFKVREMRGKLAIGITANFVNGRTVEETQVPEISGVARIYNQSFFQSLLKATGIDLENIVYYKDDTHYFVMTAKKQCLLRLGVLRQDWPDTNRLLGSANVVPEALQRFTRAAADFATHGKLGKLEFAQDAHGQPDVSAFDFTSMMRAESSARVQEKHGARLLLGLVGDCLVEPFWPLGTGVARGFLAAFDAAWMVKRWAEGAESLEVLAERESLYQLLSQTSPENMHRNVAQYGLDPATRYPNLNLRAVTPNQVRDLYDVLAKEPVQRNNDKTDTGMPATGSAGTQEELLRWCQEQTAGYPGVHVSDLSSSWADGLALCALVYRLQPGLLEPSELQGLGALEATAWALKVAENELGITPVVSAQAVVAGSDPLGLIAYLSHFHSAFKSMAHSPGPVSQASPGTSSAVLFLSKLQRTLQRSRAKENAEDAGGKKLRLEMEAETPSTEVPPDPEPGVPLTPPSQHQEAGAGDLCALCGEHLYVLERLCVNGHFFHRSCFRCHTCEATLWPGGYEQHPGDGHFYCLQHLPQTDHKAEGSDRGPESPELPTPSENSMPPGLSTPTASQEGAGPVPDPSQPTRRQIRLSSPERQRLSSLNLTPDPEMEPPPKPPRSCSALARHALESSFVGWGLPVQSPQALVAMEKEEKESPFSSEEEEEDVPLDSDVEQALQTFAKTSGTMNNYPTWRRTLLRRAKEEEMKRFCKAQTIQRRLNEIEAALRELEAEGVKLELALRRQSSSPEQQKKLWVGQLLQLVDKKNSLVAEEAELMITVQELNLEEKQWQLDQELRGYMNREENLKTAADRQAEDQVLRKLVDLVNQRDALIRFQEERRLSELALGTGAQG

Experiments:
[1] = target: full-length mouse ASAP1, for cell transfection (mouse) (UniProt Q9QWY8); assay: co-IP; 293T cells cotransfected with Flag- and GFP-tagged plasmids, 24 h; lysis buffer 50 mM Tris pH 7.5, 100 mM NaCl, 1% Triton X-100; GFP beads 1 h at 4 °C; Western blotting
[2] = target: full-length mouse ASAP1, for cell transfection (mouse) (UniProt Q9QWY8); assay: as above; remark: listed apart in the source

Molecule	binding [1]	binding [2]
full-length human Spire1, for cell transfection (from UniProt Q08AE8 1-756)	binds weakly	
B1		binds
